Experimental data taken from patent US9125388B2, “Biological control” (Isis Innovation Limited, priority 1999, dated 2015).
Values joined by “and” are separate entries in the source; they are usually repeats but may differ in a detail not shown here. Equal entries are not always repeated. This continues a long series; more values of the same kind are listed elsewhere.

Tests used:
Assay type in all cases: in vivo, Drosophila melanogaster
[1] = test system: Yp3 tTa, tRe Ras64B^V12 on the 2nd chromosome; test: Recombinant chromosome experiments / maternal transmission of Tc (Table 1): parents raised on supplement, progeny on normal food, adults by sex; settings: 25° C.
Method: (§1) 40-45 young females and 20-25 young males raised at 25° C. upon food with the indicated tetracycline supplement were allowed to mate, then transferred to normal (tetracycline-free) food after 3-4 days. These flies were transferred to fresh vials of normal food every day for 12 days, then removed on the 13th day. All the vials were incubated at 25° C. while the progeny developed. The numbers of male and female progeny emerging as adults in each vial were recorded.
(§2) A standard range of additive concentrations were used in the following experiments (0.05-20 μg/ml). […] (=“not done”)
(§3) All the preceding experiments were performed at 25° C., the standard temperature for Drosophila culture. However, the insects in the wild would clearly be exposed to varying temperatures, so we investigated the extent to which the efficiency of the system is affected by temperature. As with the recombinant chromosome experiments, 40-45 young virgin females and 20-25 young males raised at 25° C. upon food with the indicated tetracycline supplement were allowed to mate, then transferred to normal (tetracycline-free) food after 3-4 days. These flies were transferred to fresh vials of normal food every day. The numbers of male and female progeny emerging as adults in each vial were recorded. These experiments were performed at either 18° C. or 29° C.
We used a strain of Drosophila in which females, but not males, require Tc for viability.
A strain homozygous for second chromosome insertions of both Yp3-tTA and tRe-Ras64B^V12 was tested for the effect of parental dietary Tc. 40-45 young females and 20-25 young males raised at 25° C. upon food with the indicated tetracycline supplement were allowed to mate, then transferred to normal (tetracycline-free) food after 3-4 days. These flies were transferred to fresh vials of normal food every day for 12 days, and then removed on the 13th day. All the vials were incubated at 25° C. while the progeny developed. The total numbers of male and female progeny emerging as adults were recorded.

[2] = test system: Sxl^pe-tTA, tRE-Msl-2^Nopu on the X chromosome; test: Recombinant chromosome experiments: parents raised on supplement, progeny on normal food, adults by sex (25, 18 or 29° C.); settings: 25° C., Day 1-12 on tetracycline-free food
Method: as §1, §2, §3

[3] = test system: Sxl^pe-tTA, tRE-Ras64B^V12 on the third chromosome; test: as above; settings: 25° C., Day 1-12 on tetracycline-free food, listed as Tet.
Method: as §1, §2, §3

[4] = parents raised on Tc 0.1 μg/ml, Day 1 on normal food
[5] = parents raised on Tc 0.1 μg/ml, Day 2 on normal food
[6] = parents raised on Tc 0.1 μg/ml, Day 3 on normal food
[7] = parents raised on Tc 0.1 μg/ml, Day 4 on normal food
[8] = parents raised on Tc 0.1 μg/ml, Day 5 on normal food
[9] = parents raised on Tc 0.1 μg/ml, Day 6 on normal food
[10] = parents raised on Tc 0.1 μg/ml, Day 7 on normal food
[11] = parents raised on Tc 1 μg/ml, Day 1 on normal food
[12] = parents raised on Tc 1 μg/ml, Day 2 on normal food
[13] = parents raised on Tc 1 μg/ml, Day 3 on normal food
[14] = parents raised on Tc 1 μg/ml, Day 4 on normal food
[15] = parents raised on Tc 1 μg/ml, Day 5 on normal food
[16] = parents raised on Tc 1 μg/ml, Day 6 on normal food
[17] = parents raised on Tc 1 μg/ml, Day 7 on normal food
[18] = parents raised on Tc 5 μg/ml, Day 1 on normal food
[19] = parents raised on Tc 5 μg/ml, Day 2 on normal food
[20] = parents raised on Tc 5 μg/ml, Day 3 on normal food
[21] = parents raised on Tc 5 μg/ml, Day 4 on normal food
[22] = parents raised on Tc 5 μg/ml, Day 5 on normal food
[23] = parents raised on Tc 5 μg/ml, Day 6 on normal food
[24] = parents raised on Tc 5 μg/ml, Day 7 on normal food
[25] = parents raised on Tc 5 μg/ml, Day 10 on normal food
[26] = parents raised on Tc 5 μg/ml, Day 11 on normal food
[27] = parents raised on Tc 20 μg/ml, Day 8 on normal food
[28] = parents raised on Tc 20 μg/ml, Day 9 on normal food
[29] = parents raised on Tc 20 μg/ml, Day 10 on normal food
[30] = parents raised on Tc 20 μg/ml, Day 11 on normal food
[31] = parents raised on Tc 20 μg/ml, Day 12 on normal food
[32] = parents raised on Tc 20 μg/ml, Total of Days 1-12 on normal food
[33] = parents raised on Tc 100 μg/ml, Day 8 on normal food
[34] = parents raised on Tc 100 μg/ml, Day 9 on normal food
[35] = parents raised on Tc 100 μg/ml, Day 10 on normal food
[36] = parents raised on Tc 100 μg/ml, Day 11 on normal food
[37] = parents raised on Tc 100 μg/ml, Day 12 on normal food
[38] = parents raised on Tc 100 μg/ml, Total of Days 1-12 on normal food
[39] = parents raised on Tc 500 μg/ml, Day 8 on normal food
[40] = parents raised on Tc 500 μg/ml, Day 9 on normal food
[41] = parents raised on Tc 500 μg/ml, Day 10 on normal food
[42] = parents raised on Tc 500 μg/ml, Day 11 on normal food
[43] = parents raised on Tc 500 μg/ml, Day 12 on normal food
[44] = parents raised on Tc 500 μg/ml, Total of Days 1-12 on normal food
[45] = parents raised on Tc 1000 μg/ml, Day 8 on normal food
[46] = parents raised on Tc 1000 μg/ml, Day 9 on normal food
[47] = parents raised on Tc 1000 μg/ml, Day 10 on normal food
[48] = parents raised on Tc 1000 μg/ml, Day 11 on normal food
[49] = parents raised on Tc 1000 μg/ml, Day 12 on normal food
[50] = parents raised on Tc 1000 μg/ml, Total of Days 1-12 on normal food
[51] = parents raised on Tc 2000 μg/ml, Day 8 on normal food
[52] = parents raised on Tc 2000 μg/ml, Day 9 on normal food
[53] = parents raised on Tc 2000 μg/ml, Day 10 on normal food
[54] = parents raised on Tc 2000 μg/ml, Day 11 on normal food
[55] = parents raised on Tc 2000 μg/ml, Day 12 on normal food
[56] = parents raised on Tc 2000 μg/ml, Total of Days 1-12 on normal food
[57] = parents raised on Tet. 1000 μg/ml

CN(C)[C@@H]1C(O)=C(C(N)=O)C(=O)[C@@]2(O)C(O)=C3C(=O)c4c(O)cccc4[C@@](C)(O)[C@H]3C[C@@H]12 [Tetracycline, tetracycline]
♀ progeny emerging as adults [1, 4]: 0 | ♂ progeny emerging as adults [1, 4]: 93 | ♀ progeny emerging as adults [1, 5]: 0 | ♂ progeny emerging as adults [1, 5]: 119 | ♀ progeny emerging as adults [1, 6]: 0 | ♂ progeny emerging as adults [1, 6]: 112 | ♀ progeny emerging as adults [1, 7]: 0 | ♂ progeny emerging as adults [1, 7]: 141 | ♀ progeny emerging as adults [1, 8]: 0 | ♂ progeny emerging as adults [1, 8]: 100 | ♀ progeny emerging as adults [1, 9]: 0 | ♂ progeny emerging as adults [1, 9]: 126 | ♀ progeny emerging as adults [1, 10]: 0 | ♂ progeny emerging as adults [1, 10]: 89 | ♀ progeny emerging as adults [1, 11]: 0 | ♂ progeny emerging as adults [1, 11]: 117 | ♀ progeny emerging as adults [1, 12]: 0 | ♂ progeny emerging as adults [1, 12]: 135 | ♀ progeny emerging as adults [1, 13]: 0 | ♂ progeny emerging as adults [1, 13]: 122 | ♀ progeny emerging as adults [1, 14]: 0 | ♂ progeny emerging as adults [1, 14]: 121 | ♀ progeny emerging as adults [1, 15]: 0 | ♂ progeny emerging as adults [1, 15]: 127 | ♀ progeny emerging as adults [1, 16]: 0 | ♂ progeny emerging as adults [1, 16]: 101 | ♀ progeny emerging as adults [1, 17]: 0 | ♂ progeny emerging as adults [1, 17]: 136 | ♀ progeny emerging as adults [1, 18]: 0 | ♂ progeny emerging as adults [1, 18]: 112 | ♀ progeny emerging as adults [1, 19]: 0 | ♂ progeny emerging as adults [1, 19]: 116 | ♀ progeny emerging as adults [1, 20]: 0 | ♂ progeny emerging as adults [1, 20]: 128 | ♀ progeny emerging as adults [1, 21]: 0 | ♂ progeny emerging as adults [1, 21]: 111 | ♀ progeny emerging as adults [1, 22]: 0 | ♂ progeny emerging as adults [1, 22]: 136 | ♀ progeny emerging as adults [1, 23]: 0 | ♂ progeny emerging as adults [1, 23]: 113 | ♀ progeny emerging as adults [1, 24]: 0 | ♂ progeny emerging as adults [1, 24]: 130 | ♀ progeny emerging as adults ([1]; parents raised on Tc 5 μg/ml, Day 9 on normal food): 0 | ♀ progeny emerging as adults [1, 25]: 0 | ♂ progeny emerging as adults [1, 25]: 88 | ♀ progeny emerging as adults [1, 26]: 0 | ♂ progeny emerging as adults [1, 26]: 144 | ♂ progeny emerging as adults ([1]; parents raised on Tc 5 μg/ml, Day 12 on normal food): 91 | ♀ progeny emerging as adults [1, 27]: 0 | ♂ progeny emerging as adults [1, 27]: 135 | ♀ progeny emerging as adults [1, 28]: 0 | ♂ progeny emerging as adults [1, 28]: 126 | ♀ progeny emerging as adults [1, 29]: 0 | ♂ progeny emerging as adults [1, 29]: 143 | ♀ progeny emerging as adults [1, 30]: 0 | ♂ progeny emerging as adults [1, 30]: 123 | ♀ progeny emerging as adults [1, 31]: 0 | ♂ progeny emerging as adults [1, 31]: 141 | ♀ progeny emerging as adults [1, 32]: 0 | ♂ progeny emerging as adults [1, 32]: 1366 | ♀ progeny emerging as adults [1, 33]: 0 | ♂ progeny emerging as adults [1, 33]: 96 | ♀ progeny emerging as adults [1, 34]: 0 | ♂ progeny emerging as adults [1, 34]: 92 | ♀ progeny emerging as adults [1, 35]: 0 | ♂ progeny emerging as adults [1, 35]: 104 | ♀ progeny emerging as adults [1, 36]: 0 | ♂ progeny emerging as adults [1, 36]: 94 | ♀ progeny emerging as adults [1, 37]: 0 | ♂ progeny emerging as adults [1, 37]: 115 | ♀ progeny emerging as adults [1, 38]: 0 | ♂ progeny emerging as adults [1, 38]: 1407 | ♀ progeny emerging as adults [1, 39]: 0 | ♂ progeny emerging as adults [1, 39]: 141 | ♀ progeny emerging as adults [1, 40]: 0 | ♂ progeny emerging as adults [1, 40]: 144 | ♀ progeny emerging as adults [1, 41]: 0 | ♂ progeny emerging as adults [1, 41]: 123 | ♀ progeny emerging as adults [1, 42]: 0 | ♂ progeny emerging as adults [1, 42]: 104 | ♀ progeny emerging as adults [1, 43]: 0 | ♂ progeny emerging as adults [1, 43]: 124 | ♀ progeny emerging as adults [1, 44]: 2 | ♂ progeny emerging as adults [1, 44]: 1376 | ♀ progeny emerging as adults [1, 45]: 0 | ♂ progeny emerging as adults [1, 45]: 138 | ♀ progeny emerging as adults [1, 46]: 0 | ♂ progeny emerging as adults [1, 46]: 105 | ♀ progeny emerging as adults [1, 47]: 0 | ♂ progeny emerging as adults [1, 47]: 124 | ♀ progeny emerging as adults [1, 48]: 0 | ♂ progeny emerging as adults [1, 48]: 115 | ♀ progeny emerging as adults [1, 49]: 0 | ♂ progeny emerging as adults [1, 49]: 114 | ♀ progeny emerging as adults [1, 50]: 18 | ♂ progeny emerging as adults [1, 50]: 1409 | ♀ progeny emerging as adults [1, 51]: 0 | ♂ progeny emerging as adults [1, 51]: 114 | ♀ progeny emerging as adults [1, 52]: 0 | ♂ progeny emerging as adults [1, 52]: 123 | ♀ progeny emerging as adults [1, 53]: 0 | ♂ progeny emerging as adults [1, 53]: 132 | ♀ progeny emerging as adults [1, 54]: 0 | ♂ progeny emerging as adults [1, 54]: 115 | ♀ progeny emerging as adults [1, 55]: 0 | ♂ progeny emerging as adults [1, 55]: 107 | ♀ progeny emerging as adults [1, 56]: 78 | ♂ progeny emerging as adults [1, 56]: 1404 | Male progeny per daily vial ([2]; parents raised on Tet. 0.1 μg/ml, listed as Tet.): 104 and 141 and 114 and 136 | Male progeny per daily vial ([2]; parents raised on Tet. 1 μg/ml, listed as Tet.): 120 and 171 and 118 and 91 and 99 and 134 | Male progeny per daily vial ([2]; parents raised on Tet. 5 μg/ml, listed as Tet.): 155 and 163 and 130 and 110 and 159 and 156 and 91 and 84 | Male progeny per daily vial ([2]; parents raised on Tet. 20 μg/ml, listed as Tet.): 103 and 78 and 76 and 98 and 94 and 79 and 89 | Male progeny per daily vial ([2]; parents raised on Tet. 100 μg/ml, listed as Tet.): 79 and 157 and 154 and 134 and 145 and 130 | Male progeny per daily vial ([2]; parents raised on Tet. 500 μg/ml, listed as Tet.): 136 and 102 | Male progeny per daily vial [2, 57]: 115 | Male progeny per daily vial ([2]; parents raised on Tet. 2000 μg/ml, listed as Tet.): 97 and 95 and 153 and 164 and 158 and 103 | Male progeny per daily vial ([3]; parents raised on Tet. 0.1 μg/ml): 142 and 147 and 130 and 103 and 150 and 98 and 149 and 134 | Male progeny per daily vial ([3]; parents raised on Tet. 1 μg/ml): 91 and 99 and 149 and 148 and 86 | Male progeny per daily vial ([3]; parents raised on Tet. 5 μg/ml): 99 and 106 and 95 and 134 and 93 and 148 and 142 | Male progeny per daily vial ([3]; parents raised on Tet. 20 μg/ml): 149 and 150 and 89 and 140 and 106 and 97 and 142 | Male progeny per daily vial ([3]; parents raised on Tet. 100 μg/ml): 93 and 87 and 94 and 103 and 142 | Male progeny per daily vial ([3]; parents raised on Tet. 500 μg/ml): 98 and 90 and 140 and 120 and 148 and 100 and 95 | Male progeny per daily vial [3, 57]: 92 and 150 and 145 and 110 and 106 and 87 and 91 | Male progeny per daily vial ([3]; parents raised on Tet. 2000 μg/ml): 131 and 126
